The supplement of paper PMC10849652
Some of the results follow.

By UniProt entry, the sequences of proteins in these tests, tags left out. Where a name states a change or a piece, a line headed by the entry shows the natural chain unless it says otherwise.
UniProt Q15773: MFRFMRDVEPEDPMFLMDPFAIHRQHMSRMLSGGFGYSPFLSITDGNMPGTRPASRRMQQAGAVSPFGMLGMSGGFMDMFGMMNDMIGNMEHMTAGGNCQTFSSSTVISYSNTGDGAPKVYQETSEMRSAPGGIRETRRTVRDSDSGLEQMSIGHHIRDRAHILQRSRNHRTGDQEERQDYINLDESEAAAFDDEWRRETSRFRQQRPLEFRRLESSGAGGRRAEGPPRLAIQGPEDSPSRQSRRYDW
UniProt Q8N3F8: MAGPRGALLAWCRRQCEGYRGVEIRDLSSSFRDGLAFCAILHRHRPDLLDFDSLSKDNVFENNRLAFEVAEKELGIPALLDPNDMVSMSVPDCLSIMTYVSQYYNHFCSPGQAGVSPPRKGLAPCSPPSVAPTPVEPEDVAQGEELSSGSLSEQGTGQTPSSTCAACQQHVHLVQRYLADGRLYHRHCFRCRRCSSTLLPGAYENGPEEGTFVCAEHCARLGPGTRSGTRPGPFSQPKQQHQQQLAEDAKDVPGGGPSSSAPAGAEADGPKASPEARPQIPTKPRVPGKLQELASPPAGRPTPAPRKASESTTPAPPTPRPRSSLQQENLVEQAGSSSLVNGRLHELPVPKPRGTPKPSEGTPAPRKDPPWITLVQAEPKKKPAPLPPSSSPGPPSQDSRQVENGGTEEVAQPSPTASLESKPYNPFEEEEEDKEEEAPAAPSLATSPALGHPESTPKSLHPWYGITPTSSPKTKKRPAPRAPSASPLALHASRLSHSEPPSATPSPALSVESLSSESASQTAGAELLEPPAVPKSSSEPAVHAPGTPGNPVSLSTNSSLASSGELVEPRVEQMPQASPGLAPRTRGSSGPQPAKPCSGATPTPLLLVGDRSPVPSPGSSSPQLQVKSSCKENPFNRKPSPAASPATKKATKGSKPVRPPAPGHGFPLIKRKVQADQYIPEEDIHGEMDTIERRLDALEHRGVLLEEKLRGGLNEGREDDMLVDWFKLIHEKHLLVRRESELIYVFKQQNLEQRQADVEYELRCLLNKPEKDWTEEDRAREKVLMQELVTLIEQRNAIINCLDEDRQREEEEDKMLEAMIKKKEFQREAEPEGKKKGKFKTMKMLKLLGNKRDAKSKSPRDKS
UniProt Q7Z3K6: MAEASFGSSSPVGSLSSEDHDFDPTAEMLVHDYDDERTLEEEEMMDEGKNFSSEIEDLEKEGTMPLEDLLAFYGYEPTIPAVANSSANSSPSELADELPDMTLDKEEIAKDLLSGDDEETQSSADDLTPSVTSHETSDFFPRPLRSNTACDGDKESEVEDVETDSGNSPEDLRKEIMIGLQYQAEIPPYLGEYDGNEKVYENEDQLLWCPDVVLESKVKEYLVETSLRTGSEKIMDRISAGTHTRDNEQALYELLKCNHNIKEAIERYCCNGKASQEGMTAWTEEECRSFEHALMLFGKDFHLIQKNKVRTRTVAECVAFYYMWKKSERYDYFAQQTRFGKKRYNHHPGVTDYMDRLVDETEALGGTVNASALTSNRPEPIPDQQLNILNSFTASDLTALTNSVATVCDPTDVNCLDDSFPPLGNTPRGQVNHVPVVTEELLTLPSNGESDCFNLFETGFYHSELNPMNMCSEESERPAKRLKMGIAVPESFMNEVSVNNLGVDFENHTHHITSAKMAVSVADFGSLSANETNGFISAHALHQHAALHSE
UniProt Q8N3R9: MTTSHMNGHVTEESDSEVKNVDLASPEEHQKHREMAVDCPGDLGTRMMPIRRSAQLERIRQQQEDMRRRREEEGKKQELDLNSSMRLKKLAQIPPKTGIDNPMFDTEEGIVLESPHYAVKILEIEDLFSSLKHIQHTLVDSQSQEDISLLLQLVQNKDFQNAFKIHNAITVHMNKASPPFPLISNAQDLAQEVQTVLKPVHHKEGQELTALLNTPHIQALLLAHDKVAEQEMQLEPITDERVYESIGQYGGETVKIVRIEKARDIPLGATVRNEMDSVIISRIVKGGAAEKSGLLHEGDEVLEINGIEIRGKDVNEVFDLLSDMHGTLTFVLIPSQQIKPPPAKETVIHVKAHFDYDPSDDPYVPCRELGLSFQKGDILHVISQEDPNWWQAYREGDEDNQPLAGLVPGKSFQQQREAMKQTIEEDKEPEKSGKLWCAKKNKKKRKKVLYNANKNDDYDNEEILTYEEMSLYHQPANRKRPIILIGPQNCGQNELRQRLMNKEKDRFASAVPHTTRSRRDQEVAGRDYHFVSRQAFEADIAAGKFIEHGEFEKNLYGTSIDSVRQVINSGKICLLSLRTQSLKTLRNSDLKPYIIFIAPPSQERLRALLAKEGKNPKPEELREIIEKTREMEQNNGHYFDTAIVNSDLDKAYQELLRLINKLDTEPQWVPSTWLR
UniProt P39210: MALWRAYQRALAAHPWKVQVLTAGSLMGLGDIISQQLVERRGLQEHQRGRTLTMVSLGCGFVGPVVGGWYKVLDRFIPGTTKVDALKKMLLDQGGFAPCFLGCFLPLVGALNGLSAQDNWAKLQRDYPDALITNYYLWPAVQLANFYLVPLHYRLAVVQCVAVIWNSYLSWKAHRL
UniProt Q10469: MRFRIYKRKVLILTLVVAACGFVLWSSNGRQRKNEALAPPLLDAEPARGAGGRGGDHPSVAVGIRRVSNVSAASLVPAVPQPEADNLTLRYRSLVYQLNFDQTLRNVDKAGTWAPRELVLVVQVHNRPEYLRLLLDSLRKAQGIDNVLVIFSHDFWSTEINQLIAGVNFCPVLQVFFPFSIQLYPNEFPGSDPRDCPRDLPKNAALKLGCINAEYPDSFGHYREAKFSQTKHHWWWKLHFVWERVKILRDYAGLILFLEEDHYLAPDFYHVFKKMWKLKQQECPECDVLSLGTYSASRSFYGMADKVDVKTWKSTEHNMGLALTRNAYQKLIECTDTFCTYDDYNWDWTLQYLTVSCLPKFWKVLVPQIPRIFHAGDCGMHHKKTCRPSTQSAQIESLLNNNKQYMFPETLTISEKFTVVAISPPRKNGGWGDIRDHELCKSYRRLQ
UniProt Q09328: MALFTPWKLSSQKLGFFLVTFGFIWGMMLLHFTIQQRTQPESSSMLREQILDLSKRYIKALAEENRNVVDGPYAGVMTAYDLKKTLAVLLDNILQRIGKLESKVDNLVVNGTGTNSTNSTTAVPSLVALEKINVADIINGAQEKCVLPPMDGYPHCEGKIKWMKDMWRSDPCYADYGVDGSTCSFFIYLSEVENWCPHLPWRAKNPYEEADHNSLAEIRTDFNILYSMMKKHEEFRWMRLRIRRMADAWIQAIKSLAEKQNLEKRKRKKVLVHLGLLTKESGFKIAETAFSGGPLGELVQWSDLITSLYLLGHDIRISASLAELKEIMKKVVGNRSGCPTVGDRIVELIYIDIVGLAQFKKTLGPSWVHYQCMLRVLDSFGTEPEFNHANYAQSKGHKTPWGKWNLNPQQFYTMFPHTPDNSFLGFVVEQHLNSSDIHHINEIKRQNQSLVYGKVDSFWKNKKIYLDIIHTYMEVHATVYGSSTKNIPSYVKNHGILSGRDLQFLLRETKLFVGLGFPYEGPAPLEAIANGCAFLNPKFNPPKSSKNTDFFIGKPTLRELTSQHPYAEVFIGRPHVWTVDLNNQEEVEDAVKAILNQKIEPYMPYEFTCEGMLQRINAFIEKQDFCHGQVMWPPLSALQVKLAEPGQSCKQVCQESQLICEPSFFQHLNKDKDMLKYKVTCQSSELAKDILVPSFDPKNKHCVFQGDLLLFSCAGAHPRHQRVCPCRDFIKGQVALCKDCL
UniProt Q567V2: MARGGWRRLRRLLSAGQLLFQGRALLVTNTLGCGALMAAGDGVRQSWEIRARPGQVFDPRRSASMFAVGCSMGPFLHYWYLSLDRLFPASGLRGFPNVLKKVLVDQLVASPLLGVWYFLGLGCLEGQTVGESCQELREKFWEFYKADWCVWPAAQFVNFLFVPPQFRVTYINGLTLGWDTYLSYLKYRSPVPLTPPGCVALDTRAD
UniProt Q86VX9: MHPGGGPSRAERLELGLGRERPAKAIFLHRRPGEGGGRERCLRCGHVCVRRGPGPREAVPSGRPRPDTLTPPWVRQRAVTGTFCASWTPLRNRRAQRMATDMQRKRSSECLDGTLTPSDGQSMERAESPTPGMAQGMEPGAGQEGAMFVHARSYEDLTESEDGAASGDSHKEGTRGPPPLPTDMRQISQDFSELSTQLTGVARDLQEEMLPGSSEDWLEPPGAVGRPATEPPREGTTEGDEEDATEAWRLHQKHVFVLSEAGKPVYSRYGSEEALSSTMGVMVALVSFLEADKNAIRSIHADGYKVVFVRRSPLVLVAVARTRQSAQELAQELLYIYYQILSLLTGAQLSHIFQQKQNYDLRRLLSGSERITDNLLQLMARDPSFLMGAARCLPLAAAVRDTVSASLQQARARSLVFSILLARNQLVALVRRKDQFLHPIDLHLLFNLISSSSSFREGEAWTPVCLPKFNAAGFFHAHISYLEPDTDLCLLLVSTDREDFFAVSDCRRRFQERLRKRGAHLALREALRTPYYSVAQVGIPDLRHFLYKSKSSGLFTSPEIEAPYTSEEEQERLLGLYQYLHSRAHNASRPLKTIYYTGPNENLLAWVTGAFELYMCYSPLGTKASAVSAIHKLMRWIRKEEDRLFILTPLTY
UniProt Q9HAP2: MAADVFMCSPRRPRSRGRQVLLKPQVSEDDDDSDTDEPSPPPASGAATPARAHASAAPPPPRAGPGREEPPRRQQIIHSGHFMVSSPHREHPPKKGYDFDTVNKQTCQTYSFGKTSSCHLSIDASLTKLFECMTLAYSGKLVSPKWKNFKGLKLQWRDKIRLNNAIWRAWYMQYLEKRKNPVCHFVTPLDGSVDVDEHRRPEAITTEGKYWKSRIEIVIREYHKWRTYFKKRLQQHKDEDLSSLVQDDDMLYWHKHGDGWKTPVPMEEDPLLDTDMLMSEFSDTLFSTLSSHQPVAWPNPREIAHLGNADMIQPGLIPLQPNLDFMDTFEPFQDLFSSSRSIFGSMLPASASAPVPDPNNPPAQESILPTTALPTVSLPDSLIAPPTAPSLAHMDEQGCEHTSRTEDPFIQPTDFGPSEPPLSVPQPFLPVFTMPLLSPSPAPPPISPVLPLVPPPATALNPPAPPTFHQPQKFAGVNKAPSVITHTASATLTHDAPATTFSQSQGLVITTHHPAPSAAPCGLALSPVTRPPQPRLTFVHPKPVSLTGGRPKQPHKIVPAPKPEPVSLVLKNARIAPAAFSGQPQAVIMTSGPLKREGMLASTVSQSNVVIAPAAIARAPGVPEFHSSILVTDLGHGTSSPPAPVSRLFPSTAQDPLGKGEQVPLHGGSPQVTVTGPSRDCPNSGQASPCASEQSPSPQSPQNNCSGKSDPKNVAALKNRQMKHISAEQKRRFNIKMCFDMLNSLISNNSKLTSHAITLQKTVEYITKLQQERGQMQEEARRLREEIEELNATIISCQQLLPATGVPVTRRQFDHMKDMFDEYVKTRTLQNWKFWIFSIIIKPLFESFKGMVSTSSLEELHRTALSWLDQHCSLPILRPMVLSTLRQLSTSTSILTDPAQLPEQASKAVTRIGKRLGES
UniProt Q9HCE1: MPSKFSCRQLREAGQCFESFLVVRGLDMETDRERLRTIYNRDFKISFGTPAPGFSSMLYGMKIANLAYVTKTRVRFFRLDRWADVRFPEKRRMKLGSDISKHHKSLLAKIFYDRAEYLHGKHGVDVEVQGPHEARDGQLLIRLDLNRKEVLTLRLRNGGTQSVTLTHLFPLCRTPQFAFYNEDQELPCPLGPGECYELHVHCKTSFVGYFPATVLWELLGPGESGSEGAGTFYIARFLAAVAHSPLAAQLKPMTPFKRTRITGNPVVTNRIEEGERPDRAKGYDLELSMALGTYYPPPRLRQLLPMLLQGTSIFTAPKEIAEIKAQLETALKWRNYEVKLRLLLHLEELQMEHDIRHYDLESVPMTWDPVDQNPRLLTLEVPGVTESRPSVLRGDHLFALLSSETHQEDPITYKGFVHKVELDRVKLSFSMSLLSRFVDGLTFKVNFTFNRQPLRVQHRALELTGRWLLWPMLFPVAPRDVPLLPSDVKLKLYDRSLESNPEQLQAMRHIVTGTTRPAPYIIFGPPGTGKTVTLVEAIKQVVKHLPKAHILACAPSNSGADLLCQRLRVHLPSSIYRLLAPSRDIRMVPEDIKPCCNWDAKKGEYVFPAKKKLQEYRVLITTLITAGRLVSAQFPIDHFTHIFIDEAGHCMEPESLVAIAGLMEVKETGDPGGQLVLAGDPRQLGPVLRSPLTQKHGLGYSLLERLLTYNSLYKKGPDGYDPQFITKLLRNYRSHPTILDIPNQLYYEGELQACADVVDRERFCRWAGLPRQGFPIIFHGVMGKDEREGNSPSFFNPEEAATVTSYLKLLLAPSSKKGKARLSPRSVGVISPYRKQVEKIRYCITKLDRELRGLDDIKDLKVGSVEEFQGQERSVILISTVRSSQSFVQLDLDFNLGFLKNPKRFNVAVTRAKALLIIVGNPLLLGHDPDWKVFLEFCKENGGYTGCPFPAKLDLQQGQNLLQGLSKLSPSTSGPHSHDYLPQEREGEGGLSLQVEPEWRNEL
UniProt Q9BRT3: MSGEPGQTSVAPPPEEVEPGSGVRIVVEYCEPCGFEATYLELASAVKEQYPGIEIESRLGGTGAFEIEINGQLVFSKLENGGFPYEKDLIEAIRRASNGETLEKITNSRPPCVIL

How the values were obtained:
Assay in all cases: log2 fold change, soluble protein after heating vs DMSO (PISA); higher = thermal stabilisation; K562 lysate, 10 uM; active = over 0.2 and 3.5 SD of the protein, either way, in both replicates (recomputed)
alvocidib = compound: CN1CC[C@H](c2c(O)cc(O)c3c(=O)cc(-c4ccccc4Cl)oc23)[C@H](O)C1 [alvocidib]
Outline: (§1)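 Soluble protein was defined as the supernatant remaining after 21,000xg for 90 min, following pooling of heated aliquots and adjustment to 0.5% NP-40 at 4°C. Before that, crude K562 extract at 1 mg/mL protein in PBS pH 7.4 with 1 mM MgCl2 was treated with 10 μM compound for 30 min and heated for 3 min across 48°C-58°C. Quantification used TMTpro 16plex LC-MS/MS with channel sums equalised, and values are log-two fold changes in thermal stability relative to solvent controls from duplicates.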

Tubastatin A = compound: CN1CCc2c(c3ccccc3n2Cc2ccc(C(=O)NO)cc2)C1 [Tubastatin A]
Outline: as §1

[1] = compound: CNC(=O)C1=CC=CC=C1NC2=NC(=NC=C2Cl)NC3=C(C=C(C=C3)N4CCOCC4)OC
Outline: as §1

defactinib = compound: CNC(=O)c1ccc(Nc2ncc(C(F)(F)F)c(NCc3nccnc3N(C)S(C)(=O)=O)n2)cc1 [defactinib]
Outline: as §1

[2] = compound: CNc1nc(-c2ccc3c(N)n[nH]c3c2)cc(N2C[C@@H](C(=O)NC3CCCCC3)CC[C@H]2C)n1
Outline: as §1

encorafenib = compound: COC(=O)N[C@@H](C)CNc1nccc(-c2cn(C(C)C)nc2-c2cc(Cl)cc(NS(C)(=O)=O)c2F)n1 [encorafenib]
Outline: as §1

[3] = compound: COC(=O)[C@H](CCSC)NC(=O)C1=C(C=C(C=C1)NC[C@H](CS)N)C2=CC=CC=C2
Outline: as §1

alisertib = compound: COc1cc(Nc2ncc3c(n2)-c2ccc(Cl)cc2C(c2c(F)cccc2OC)=NC3)ccc1C(=O)O [alisertib]
Outline: as §1

gefitinib = compound: COc1cc2ncnc(Nc3ccc(F)c(Cl)c3)c2cc1OCCCN1CCOCC1 [gefitinib]
Outline: as §1

[4] = compound: COc1cc2nc(-c3cc(F)ccc3O)nc(N[C@@H]3CNC[C@H]3C(C)(C)O)c2cc1OC
Outline: as §1

Measured: log2 fold change

MOCS3 (UniProt O95396)
inactive: alvocidib -0.213 | Tubastatin A -0.082 | [1] 0.111 | defactinib -0.161 | [2] -0.008 | encorafenib 0.056 | [3] -0.094 | alisertib 0.031 | gefitinib -0.231

MPHOSPH8 (UniProt Q99549)
inactive: alvocidib -0.005 | Tubastatin A -0.228 | [1] 0.228 | defactinib 0.14 | [2] 0.012 | encorafenib 0.063 | [3] 0.029 | [4] -0.079

MRPL17 (UniProt Q9NRX2)
inactive: alvocidib 0.007 | Tubastatin A -0.049 | [1] -0.024 | defactinib -0.049 | [2] -0.009 | encorafenib -0.017 | [3] -0.07 | alisertib 0.067 | [4] 0.053 | gefitinib 0.029

MLF2 (UniProt Q15773)
inactive: alvocidib 0 | Tubastatin A -0.002 | [1] 0.033 | defactinib 0.038 | [2] -0.001 | encorafenib -0.07 | [3] -0.001 | alisertib -0.011 | gefitinib -0.093

Random excerpt: 2 records from the list.
MOCS3 (UniProt O95396)
inactive: alvocidib -0.213 | Tubastatin A -0.082 | [1] 0.111 | defactinib -0.161 | [2] -0.008 | encorafenib 0.056 | [3] -0.094 | alisertib 0.031 | gefitinib -0.231

MRPL17 (UniProt Q9NRX2)
inactive: alvocidib 0.007 | Tubastatin A -0.049 | [1] -0.024 | defactinib -0.049 | [2] -0.009 | encorafenib -0.017 | [3] -0.07 | alisertib 0.067 | [4] 0.053 | gefitinib 0.029

Remaining list, next part.

MRM1 (UniProt Q6IN84)
inactive: alvocidib -0.021 | Tubastatin A 0.074 | [1] -0.003 | defactinib -0.007 | [2] 0.189 | encorafenib 0.041 | [3] 0.056 | alisertib -0.003 | [4] 0.105 | gefitinib 0.052

MICALL1 (UniProt Q8N3F8)
inactive: alvocidib -0.003 | Tubastatin A -0.063 | [1] -0.01 | defactinib -0.003 | [2] 0.049 | encorafenib 0.027 | [3] -0.006 | alisertib -0.012 | [4] 0.022 | gefitinib 0.009

MLST8 (UniProt Q9BVC4)
inactive: alvocidib 0.009 | Tubastatin A -0.072 | [1] -0.059 | defactinib -0.023 | [2] -0.059 | encorafenib -0.012 | [3] 0.038 | alisertib -0.016 | [4] -0.01 | gefitinib -0.004

MIEF1 (UniProt L0R8F8)
inactive: alvocidib 0.039 | Tubastatin A 0.047 | [1] -0.014 | defactinib 0.012 | [2] 0.071 | encorafenib -0.032 | [3] 0.038 | alisertib 0.045 | [4] 0.061 | gefitinib 0.097

MOB3B (UniProt Q86TA1)
inactive: alvocidib 0.071 | Tubastatin A 0 | [1] 0.076 | defactinib -0.008 | [2] 0.062 | encorafenib 0.253 | [3] -0.098 | alisertib -0.027 | [4] -0.025 | gefitinib -0.131

MNX1 (UniProt P50219)
inactive: alvocidib -0.023 | Tubastatin A 0 | [1] 0.06 | defactinib 0.067 | [2] -0.071 | encorafenib 0.134 | [3] -0.059 | [4] 0.16

MIER3 isoform 2 (UniProt Q7Z3K6)
inactive: alvocidib -0.048 | Tubastatin A -0.119 | [1] 0.012 | defactinib 0.006 | [2] -0.022 | encorafenib 0.057 | [3] 0.079 | alisertib -0.143 | gefitinib -0.022

MPP5 (UniProt Q8N3R9)
inactive: alvocidib 0.066 | Tubastatin A -0.08 | [1] -0.051 | defactinib 0.034 | [2] 0.045 | encorafenib 0.073 | [3] 0.114 | alisertib -0.217 | gefitinib -0.139

MGA (UniProt Q8IWI9)
inactive: alvocidib -0.083 | Tubastatin A 0.031 | [1] 0 | defactinib -0.049 | [2] 0.12 | encorafenib 0.055 | [3] -0.068 | alisertib -0.156 | [4] 0.094 | gefitinib 0.061

MKLN1 (UniProt Q9UL63)
inactive: alvocidib -0.008 | Tubastatin A -0.006 | [1] 0 | defactinib 0.008 | [2] 0.043 | encorafenib 0.024 | [3] -0.002 | alisertib 0.019 | [4] -0.016 | gefitinib 0

MPV17 (UniProt P39210)
inactive: alvocidib 0.011 | Tubastatin A -0.049 | [1] 0.203 | defactinib 0.135 | [2] 0.042 | encorafenib -0.041 | [3] 0.007 | alisertib -0.04 | [4] 0.077 | gefitinib -0.014

MGAT2 (UniProt Q10469)
inactive: alvocidib 0.01 | Tubastatin A 0.059 | [1] 0.014 | defactinib 0.018 | [2] 0.092 | encorafenib 0.016 | [3] -0.008 | alisertib 0.041 | [4] -0.068 | gefitinib -0.059

MGAT5 (UniProt Q09328)
inactive: alvocidib 0.056 | Tubastatin A -0.009 | [1] -0.011 | [2] -0.026 | encorafenib 0.006 | [3] -0.095 | alisertib 0.025 | [4] 0.054 | gefitinib -0.064
active: defactinib -0.337

MRPL10 isoform 2 (UniProt Q7Z7H8)
inactive: alvocidib 0.024 | Tubastatin A -0.013 | [1] -0.035 | defactinib 0.023 | [2] 0.074 | encorafenib 0.031 | [3] 0.183 | alisertib 0.028 | [4] -0.025 | gefitinib -0.019

MRPL13 (UniProt Q9BYD1)
inactive: alvocidib -0.005 | Tubastatin A -0.014 | [1] -0.031 | defactinib -0.01 | [2] 0.012 | encorafenib 0.029 | [3] 0.081 | alisertib -0.004 | [4] 0.085 | gefitinib 0.025

MPV17L2 (UniProt Q567V2)
inactive: alvocidib 0.072 | Tubastatin A 0.1 | [1] 0.049 | defactinib -0.007 | [2] -0.005 | encorafenib -0.063 | [3] -0.071 | alisertib -0.003 | [4] -0.001 | gefitinib -0.083

MON1A (UniProt Q86VX9)
inactive: alvocidib -0.09 | Tubastatin A -0.058 | [1] -0.021 | defactinib 0.015 | [2] -0.038 | encorafenib 0.012 | [3] -0.344 | alisertib -0.022 | [4] 0.082 | gefitinib -0.035

MLXIP (UniProt Q9HAP2)
inactive: alvocidib -0.035 | Tubastatin A -0.016 | [1] -0.049 | defactinib -0.029 | [2] -0.017 | encorafenib 0.027 | [3] -0.016 | alisertib 0.002 | [4] -0.051 | gefitinib -0.047

MOV10 (UniProt Q9HCE1)
inactive: alvocidib 0.002 | Tubastatin A -0.014 | [1] -0.011 | defactinib -0.006 | [2] -0.003 | encorafenib 0.004 | [3] -0.018 | alisertib 0.021 | [4] 0.002 | gefitinib -0.003

MIB1 (UniProt Q86YT6)
inactive: alvocidib -0.074 | Tubastatin A 0.031 | [1] 0.006 | defactinib -0.034 | [2] -0.002 | encorafenib 0.026 | [3] 0.028 | alisertib -0.021 | [4] 0.134 | gefitinib -0.086

MIF4GD isoform 3 (UniProt A9UHW6)
inactive: alvocidib 0.021 | Tubastatin A 0.014 | [1] 0.002 | defactinib -0.01 | [2] -0.066 | encorafenib -0.012 | [3] 0.01 | alisertib -0.037 | [4] 0.007 | gefitinib 0.049

MKRN1 (UniProt Q9UHC7)
inactive: alvocidib -0.048 | Tubastatin A 0.012 | [1] 0.018 | defactinib 0.012 | [2] -0.057 | encorafenib -0.006 | [3] 0 | alisertib 0.039 | [4] -0.011 | gefitinib 0.063

MIEN1 (UniProt Q9BRT3)
inactive: alvocidib 0.072 | Tubastatin A 0.073 | [1] 0.03 | defactinib 0.028 | [2] 0.035 | encorafenib -0.014 | [3] -0.016 | alisertib 0.005 | [4] -0.08 | gefitinib -0.039

MRPL16 (UniProt Q9NX20)
inactive: Tubastatin A -0.054 | [1] -0.045 | defactinib 0.028 | [2] -0.017 | encorafenib 0.024 | [3] 0.075 | alisertib 0.054 | [4] -0.069 | gefitinib 0.074

MMS22L (UniProt Q6ZRQ5)
inactive: alvocidib 0.068 | [1] -0.011 | defactinib 0.06 | [2] -0.03 | encorafenib -0.007 | [3] 0.017 | alisertib -0.004 | [4] 0.055 | gefitinib 0.035

MIPOL1 (UniProt Q8TD10)
inactive: alvocidib 0 | Tubastatin A -0.027 | [1] -0.025 | [2] 0.033 | encorafenib -0.049 | [3] 0.053 | [4] -0.005

MNT (UniProt Q99583)
inactive: alvocidib 0.014 | Tubastatin A 0.023 | [1] -0.057 | defactinib -0.002 | [2] 0.136 | encorafenib 0.007 | [3] -0.075 | [4] -0.001
